Data on five molecules can be found in publication PMC8674265.

These are yes or no findings as the source states them, for the method shown. Binding seen in cells or lysates may run through a third protein. A yes stands for co-enrichment or nearness to the bait. Other partners may have been found.

Sequences and labels used below:
B1: NOP2 (protein, UniProt P46087 1-812)
chain: MGRKLDPTKEKRGPGRKARKQKGAETELVRFLPAVSDENSKRLSSRARKRAAKRRLGSVEAPKTNKSPEAKPLPGKLPKGISAGAVQTAGKKGPQSLFNAPRGKKRPAPGSDEEEEEEDSEEDGMVNHGDLWGSEDDADTVDDYGADSNSEDEEEGEALLPIERAARKQKAREAAAGIQWSEEETEDEEEEKEVTPESGPPKVEEADGGLQINVDEEPFVLPPAGEMEQDAQAPDLQRVHKRIQDIVGILRDFGAQREEGRSRSEYLNRLKKDLAIYYSYGDFLLGKLMDLFPLSELVEFLEANEVPRPVTLRTNTLKTRRRDLAQALINRGVNLDPLGKWSKTGLVVYDSSVPIGATPEYLAGHYMLQGASSMLPVMALAPQEHERILDMCCAPGGKTSYMAQLMKNTGVILANDANAERLKSVVGNLHRLGVTNTIISHYDGRQFPKVVGGFDRVLLDAPCSGTGVISKDPAVKTNKDEKDILRCAHLQKELLLSAIDSVNATSKTGGYLVYCTCSITVEENEWVVDYALKKRNVRLVPTGLDFGQEGFTRFRERRFHPSLRSTRRFYPHTHNMDGFFIAKFKKFSNSIPQSQTGNSETATPTNVDLPQVIPKSENSSQPAKKAKGAAKTKQQLQKQQHPKKASFQKLNGISKGADSELSTVPSVTKTQASSSFQDSSQPAGKAEGIREPKVTGKLKQRSPKLQSSKKVAFLRQNAPPKGTDTQTPAVLSPSKTQATLKPKDHHQPLGRAKGVEKQQLPEQPFEKAAFQKQNDTPKGPQPPTVSPIRSSRPPPAKRKKSQSRGNSQLLLS
B2: YTHDC2 (protein, UniProt Q9H6S0 1-1430)
chain: MSRPSSVSPRQPAPGGGGGGGPSPCGPGGGGRAKGLKDIRIDEEVKIAVNIALERFRYGDQREMEFPSSLTSTERAFIHRLSQSLGLVSKSKGKGANRYLTVKKKDGSETAHAMMTCNLTHNTKHAVRSLIQRFPVTNKERTELLPKTERGNVFAVEAENREMSKTSGRLNNGIPQIPVKRGESEFDSFRQSLPVFEKQEEIVKIIKENKVVLIVGETGSGKTTQIPQFLLDDCFKNGIPCRIFCTQPRRLAAIAVAERVAAERRERIGQTIGYQIRLESRVSPKTLLTFCTNGVLLRTLMAGDSTLSTVTHVIVDEVHERDRFSDFLLTKLRDLLQKHPTLKLILSSAALDVNLFIRYFGSCPVIYIQGRPFEVKEMFLEDILRTTGYTNKEMLKYKKEKQQEEKQQTTLTEWYSAQENSFKPESQRQRTVLNVTDEYDLLDDGGDAVFSQLTEKDVNCLEPWLIKEMDACLSDIWLHKDIDAFAQVFHLILTENVSVDYRHSETSATALMVAAGRGFASQVEQLISMGANVHSKASNGWMALDWAKHFGQTEIVDLLESYSATLEFGNLDESSLVQTNGSDLSAEDRELLKAYHHSFDDEKVDLDLIMHLLYNICHSCDAGAVLIFLPGYDEIVGLRDRILFDDKRFADSTHRYQVFMLHSNMQTSDQKKVLKNPPAGVRKIILSTNIAETSITVNDVVFVIDSGKVKEKSFDALNFVTMLKMVWISKASAIQRKGRAGRCRPGICFRLFSRLRFQNMLEFQTPELLRMPLQELCLHTKLLAPVNCPIADFLMKAPEPPPALIVRNAVQMLKTIDAMDTWEDLTELGYHLADLPVEPHLGKMVLCAVVLKCLDPILTIACTLAYRDPFVLPTQASQKRAAMLCRKRFTAGAFSDHMALLRAFQAWQKARSDGWERAFCEKNFLSQATMEIIIGMRTQLLGQLRASGFVRARGGGDIRDVNTNSENWAVVKAALVAGMYPNLVHVDRENLVLTGPKEKKVRFHPASVLSQPQYKKIPPANGQAAAIKALPTDWLIYDEMTRAHRIANIRCCSAVTPVTILVFCGPARLASNALQEPSSFRVDGIPNDSSDSEMEDKTTANLAALKLDEWLHFTLEPEAASLLLQLRQKWHSLFLRRMRAPSKPWSQVDEATIRAIIAVLSTEEQSAGLQQPSGIGQRPRPMSSEELPLASSWRSNNSRKSSADTEFSDECTTAERVLMKSPSPALHPPQKYKDRGILHPKRGTEDRSDQSSLKSTDSSSYPSPCASPSPPSSGKGSKSPSPRPNMPVRYFIMKSSNLRNLEISQQKGIWSTTPSNERKLNRAFWESSIVYLVFSVQGSGHFQGFSRMSSEIGREKSQDWGSAGLGGVFKVEWIRKESLPFQFAHHLLNPWNDNKKVQISRDGQELEPLVGEQLLQLWERLPLGEKNTTD
B3: TOP3B (protein, UniProt O95985 1-862)
chain: MKTVLMVAEKPSLAQSIAKILSRGSLSSHKGLNGACSVHEYTGTFAGQPVRFKMTSVCGHVMTLDFLGKYNKWDKVDPAELFSQAPTEKKEANPKLNMVKFLQVEGRGCDYIVLWLDCDKEGENICFEVLDAVLPVMNKAHGGEKTVFRARFSSITDTDICNAMACLGEPDHNEALSVDARQELDLRIGCAFTRFQTKYFQGKYGDLDSSLISFGPCQTPTLGFCVERHDKIQSFKPETYWVLQAKVNTDKDRSLLLDWDRVRVFDREIAQMFLNMTKLEKEAQVEATSRKEKAKQRPLALNTVEMLRVASSSLGMGPQHAMQTAERLYTQGYISYPRTETTHYPENFDLKGSLRQQANHPYWADTVKRLLAEGINRPRKGHDAGDHPPITPMKSATEAELGGDAWRLYEYITRHFIATVSHDCKYLQSTISFRIGPELFTCSGKTVLSPGFTEVMPWQSVPLEESLPTCQRGDAFPVGEVKMLEKQTNPPDYLTEAELITLMEKHGIGTDASIPVHINNICQRNYVTVESGRRLKPTNLGIVLVHGYYKIDAELVLPTIRSAVEKQLNLIAQGKADYRQVLGHTLDVFKRKFHYFVDSIAGMDELMEVSFSPLAATGKPLSRCGKCHRFMKYIQAKPSRLHCSHCDETYTLPQNGTIKLYKELRCPLDDFELVLWSSGSRGKSYPLCPYCYNHPPFRDMKKGMGCNECTHPSCQHSLSMLGIGQCVECESGVLVLDPTSGPKWKVACNKCNVVAHCFENAHRVRVSADTCSVCEAALLDVDFNKAKSPLPGDETQHMGCVFCDPVFQELVELKHAASCHPMHRGGPGRRQGRGRGRARRPPGKPNPRRPKDKMSALAAYFV
B4: FTST3 (protein, UniProt Q8IY81 1-847)
chain: MGKKGKVGKSRRDKFYHLAKETGYRSRSAFKLIQLNRRFQFLQKARALLDLCAAPGGWLQVAAKFMPVSSLIVGVDLVPIKPLPNVVTLQQDITTERCRQALRKELKTWKVDVVLNDGAPNVGASWVHDAYSQAHLTLMALRLACDFLARGGSFITKVFRSRDYQPLLWIFQQLFRRVQATKPQASRHESAEIFVVCQGFLAPDKVDSKFFDPKFAFKEVEVQAKTVTELVTKKKPKAEGYAEGDLTLYHRTSVTDFLRAANPVDFLSKASEIMVDDEELAQHPATTEDIRVCCQDIRVLGRKELRSLLNWRTKLRRYVAKKLKEQAKALDISLSSGEEDEGDEEDSTAGTTKQPSKEEEEEEEEEQLNQTLAEMKAQEVAELKRKKKKLLREQRKQRERVELKMDLPGVSIADEGETGMFSLSTIRGHQLLEEVTQGDMSAADTFLSDLPRDDIYVSDVEDDGDDTSLDSDLDPEELAGVRGHQGLRDQKRMRLTEVQDDKEEEEEENPLLVPLEEKAVLQEEQANLWFSKGSFAGIEDDADEALEISQAQLLFENRRKGRQQQQKQQLPQTPPSCLKTEIMSPLYQDEAPKGTEASSGTEAATGLEGEEKDGISDSDSSTSSEEEESWEPLRGKKRSRGPKSDDDGFEIVPIEDPAKHRILDPEGLALGAVIASSKKAKRDLIDNSFNRYTFNEDEGELPEWFVQEEKQHRIRQLPVGKKEVEHYRKRWREINARPIKKVAEAKARKKRRMLKRLEQTRKKAEAVVNTVDISEREKVAQLRSLYKKAGLGKEKRHVTYVVAKKGVGRKVRRPAGVRGHFKVVDSRMKKDQRAQQRKEQKKKHKRK
B5: XRN2 (protein, UniProt Q9H0D6 1-950)
chain: MGVPAFFRWLSRKYPSIIVNCVEEKPKECNGVKIPVDASKPNPNDVEFDNLYLDMNGIIHPCTHPEDKPAPKNEDEMMVAIFEYIDRLFSIVRPRRLLYMAIDGVAPRAKMNQQRSRRFRASKEGMEAAVEKQRVREEILAKGGFLPPEEIKERFDSNCITPGTEFMDNLAKCLRYYIADRLNNDPGWKNLTVILSDASAPGEGEHKIMDYIRRQRAQPNHDPNTHHCLCGADADLIMLGLATHEPNFTIIREEFKPNKPKPCGLCNQFGHEVKDCEGLPREKKGKHDELADSLPCAEGEFIFLRLNVLREYLERELTMASLPFTFDVERSIDDWVFMCFFVGNDFLPHLPSLEIRENAIDRLVNIYKNVVHKTGGYLTESGYVNLQRVQMIMLAVGEVEDSIFKKRKDDEDSFRRRQKEKRKRMKRDQPAFTPSGILTPHALGSRNSPGSQVASNPRQAAYEMRMQNNSSPSISPNTSFTSDGSPSPLGGIKRKAEDSDSEPEPEDNVRLWEAGWKQRYYKNKFDVDAADEKFRRKVVQSYVEGLCWVLRYYYQGCASWKWYYPFHYAPFASDFEGIADMPSDFEKGTKPFKPLEQLMGVFPAASGNFLPPSWRKLMSDPDSSIIDFYPEDFAIDLNGKKYAWQGVALLPFVDERRLRAALEEVYPDLTPEETRRNSLGGDVLFVGKHHPLHDFILELYQTGSTEPVEVPPELCHGIQGKFSLDEEAILPDQIVCSPVPMLRDLTQNTVVSINFKDPQFAEDYIFKAVMLPGARKPAAVLKPSDWEKSSNGRQWKPQLGFNRDRRPVHLDQAAFRTLGHVMPRGSGTGIYSNAAPPPVTYQGNLYRPLLRGQAQIPKLMSNMRPQDSWRGPPPLFQQQRFDRGVGAEPLLPWNRMLQTQNAAFQPNQYQMLAGPGGYPPRRDDRGGRQGYPREGRKYPLPPPSGRYNWN

This assay addresses T1, ELM2 and SANT domain-containing protein 1 (ELMSAN1) (human (endogenous in HEK293T and Hela.cl1)) (UniProt Q6PJG2).
T1 sequence: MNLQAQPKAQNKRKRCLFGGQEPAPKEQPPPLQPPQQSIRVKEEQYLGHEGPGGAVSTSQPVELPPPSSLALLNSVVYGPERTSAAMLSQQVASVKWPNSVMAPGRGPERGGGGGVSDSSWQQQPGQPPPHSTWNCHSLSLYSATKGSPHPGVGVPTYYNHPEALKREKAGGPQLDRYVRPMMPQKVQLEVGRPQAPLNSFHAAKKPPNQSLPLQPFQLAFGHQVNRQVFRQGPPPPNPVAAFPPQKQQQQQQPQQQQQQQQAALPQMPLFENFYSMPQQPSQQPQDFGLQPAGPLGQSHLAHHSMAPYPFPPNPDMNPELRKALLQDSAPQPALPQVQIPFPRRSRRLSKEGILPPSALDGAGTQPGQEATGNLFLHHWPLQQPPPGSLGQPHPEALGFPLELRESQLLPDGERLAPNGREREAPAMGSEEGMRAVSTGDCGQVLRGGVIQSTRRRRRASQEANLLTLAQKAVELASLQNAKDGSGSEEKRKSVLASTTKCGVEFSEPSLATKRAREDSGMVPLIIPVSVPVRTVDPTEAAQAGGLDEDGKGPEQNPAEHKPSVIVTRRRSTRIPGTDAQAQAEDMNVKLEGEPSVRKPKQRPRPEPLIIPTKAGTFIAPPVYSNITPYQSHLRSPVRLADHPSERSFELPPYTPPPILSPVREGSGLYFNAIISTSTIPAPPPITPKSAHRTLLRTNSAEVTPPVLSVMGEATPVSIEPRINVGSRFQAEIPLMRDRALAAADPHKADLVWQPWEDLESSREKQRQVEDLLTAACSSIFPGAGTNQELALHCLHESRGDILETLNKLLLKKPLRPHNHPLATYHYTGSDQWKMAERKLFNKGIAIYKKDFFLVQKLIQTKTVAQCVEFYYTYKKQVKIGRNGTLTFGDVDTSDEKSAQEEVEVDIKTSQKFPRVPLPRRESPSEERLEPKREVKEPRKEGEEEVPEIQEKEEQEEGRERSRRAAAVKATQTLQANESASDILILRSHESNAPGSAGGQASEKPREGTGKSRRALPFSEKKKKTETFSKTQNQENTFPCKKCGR
Nature of the assay: affinity purification with mass spectrometry; HEK293T nuclear extract precipitated with 5 µg rabbit anti-ELMSAN1 antibody and protein A magnetic beads, eluted with 0.5 M ammonium hydroxide, LC-MS/MS; controls water or normal rabbit IgG; enrichment by spectral counts and SAINT (FC-A > 1); four experiments.
On to B1, for which the binding entry is on record as “binds”.
As for B2, the binding result is “binds”.
The entry for B3 is “binds”; for B4 it is “binds”; for B5 it is “binds”.
